Reference: PubChem BioAssay AID2685 (National Center for Advancing Translational Sciences (NCATS), 2010)
This is one part of the list. Shown are side measurements of this screen, not its main read-out; they come without a call. Most of these compounds were active or inconclusive in the main read-out, so they are no random draw. Potencies come from curve fits of mixed quality, noted in brackets.

Test: qHTS Assay for Lipid Storage Modulators in Drosophila S3 Cells;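 for cell number change: cells counted by Cell Tracker Red CMTPX staining in the red channel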
Conditions: BODIPY lipid droplet fluorescence, 18-24 h; for cell number change: measured here: cell count max response, cells fed with added oleic acid
Procedure, shortened: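 Drosophila S3 cells loaded with oleic acid (400 uM, as added) and compounds at several concentrations; lipid droplets imaged by 488-nm laser-scanning cytometry, 500–530 nm intensity and object ratio to cell channel. Percent activity normalized to 20 uM Triacsin C.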

[1] = measured here: cell number channel AC50, cells fed with added oleic acid
[2] = measured here: lipid fluorescence (Fed channel) AC50, cells fed with added oleic acid

Compound | cell number change [%] | AC50 [1] | AC50 [2]
CCN(CC)CCCn1c2c(c(SCC(=O)Nc3nc(C)cs3)nc1=O)CCC2 | 1 |  | 
Cc1ccc(NC(=O)c2cc(-c3cc(C)c(C)cc3O)n[nH]2)cc1C | 2.7 | 2.91 µM [rising, single point] | 
NC(=O)COC(=O)CNC(=O)c1sc2ccccc2c1Cl | 25 |  | 
C=Cc1ccc(Cn2c(=O)n(C)c(=O)c3sccc32)cc1 | -22.5 |  | 
CCC(C)NC(=O)CN(c1cc(Cl)ccc1OC)S(C)(=O)=O (centres undefined) | -31.9 | 29.1 µM [falling, single point] | 
COc1cc(C(=O)Nc2nccs2)cc(OC)c1OC | 6.68 |  | 3.26 µM [rising, partial curve]
CC1(NC(=O)NCc2ccccc2)CCS(=O)(=O)C1 (centres undefined) |  |  | 0.651 µM [falling, single point]
CCOc1ccc(Br)cc1S(=O)(=O)Nc1ccc(NC(=O)c2ccccc2F)cc1 | -4.91 |  | 
Cc1ccc(S(=O)(=O)NCC(=O)OCC(=O)c2ccc(Br)s2)cc1 | 18.3 |  | 
COc1ccc(-c2c(C)nn3c(-c4ccccc4)cc(C)nc23)cc1 | -49.9 |  | 
CCN(CC)S(=O)(=O)c1cc(C(=O)OCC(=O)NC(=O)c2cccn2C)ccc1C | 21.7 |  | 1.46 µM [rising, partial curve]
COc1ccc(C)cc1S(=O)(=O)N(CC(=O)NC1CCCC1)c1ccc(F)cc1 | 4.5 | 6.51 µM [rising, partial curve, poor fit] | 
Cc1cccc(N2CC(C(=O)Nc3ccc4c(c3)OCCO4)CC2=O)c1C (centres undefined) | 37.8 | 25.9 µM [rising, partial curve] | 
O=C(CN1CCN(Cc2ccccc2Cl)CC1)N/N=C/c1ccco1 | 1.81 |  | 
CCOC(=O)N1CCN(C(=O)CSc2nnc(-c3cccc(OC)c3)o2)CC1 | 14.3 |  | 5.17 µM [falling, single point]
O=C(c1ccc(NC2=NC3CS(=O)(=O)CC3S2)cc1)N1CCN(c2ccc(F)cc2)CC1 (centres undefined) | 8.43 |  | 0.731 µM [falling, full curve]
COc1cc(/C=C/C(=O)OCC(=O)N(C)CC(=O)Nc2ccc(F)cc2)ccc1OC(F)F | 17.3 |  | 0.184 µM [rising, full curve, poor fit]
Cc1cc(N/N=C(/CCC(=O)O)C(=O)O)nc2ccccc12 | -100 | 29.1 µM [falling, partial curve, poor fit] | 
O=C(Nc1nnc(C2=COCCO2)o1)c1cccc(C(F)(F)F)c1 | -17.4 |  | 29.1 µM [falling, single point]
COc1ccc(OCc2nnc3n2N=C(c2ccc(Br)cc2)CS3)cc1 | -7.69 |  | 
CCOC(=O)N1CCN(c2c(N3CCN(c4cccc(C)c4C)CC3)c(=O)c2=O)CC1 | -6.74 |  | 2.06 µM [falling, partial curve, poor fit]

Given as a markdown table: part of the list above.

| Compound | cell number change [%] | AC50 [1] | AC50 [2] |
| --- | --- | --- | --- |
| CCC(C)NC(=O)CN(c1cc(Cl)ccc1OC)S(C)(=O)=O (centres undefined) | -31.9 | 29.1 µM [falling, single point] |  |
| COc1cc(C(=O)Nc2nccs2)cc(OC)c1OC | 6.68 |  | 3.26 µM [rising, partial curve] |
| CC1(NC(=O)NCc2ccccc2)CCS(=O)(=O)C1 (centres undefined) |  |  | 0.651 µM [falling, single point] |
| CCOc1ccc(Br)cc1S(=O)(=O)Nc1ccc(NC(=O)c2ccccc2F)cc1 | -4.91 |  |  |
| Cc1ccc(S(=O)(=O)NCC(=O)OCC(=O)c2ccc(Br)s2)cc1 | 18.3 |  |  |
| COc1ccc(-c2c(C)nn3c(-c4ccccc4)cc(C)nc23)cc1 | -49.9 |  |  |
| CCN(CC)S(=O)(=O)c1cc(C(=O)OCC(=O)NC(=O)c2cccn2C)ccc1C | 21.7 |  | 1.46 µM [rising, partial curve] |
| COc1ccc(C)cc1S(=O)(=O)N(CC(=O)NC1CCCC1)c1ccc(F)cc1 | 4.5 | 6.51 µM [rising, partial curve, poor fit] |  |
| Cc1cccc(N2CC(C(=O)Nc3ccc4c(c3)OCCO4)CC2=O)c1C (centres undefined) | 37.8 | 25.9 µM [rising, partial curve] |  |
| O=C(CN1CCN(Cc2ccccc2Cl)CC1)N/N=C/c1ccco1 | 1.81 |  |  |
| CCOC(=O)N1CCN(C(=O)CSc2nnc(-c3cccc(OC)c3)o2)CC1 | 14.3 |  | 5.17 µM [falling, single point] |
| O=C(c1ccc(NC2=NC3CS(=O)(=O)CC3S2)cc1)N1CCN(c2ccc(F)cc2)CC1 (centres undefined) | 8.43 |  | 0.731 µM [falling, full curve] |
| COc1cc(/C=C/C(=O)OCC(=O)N(C)CC(=O)Nc2ccc(F)cc2)ccc1OC(F)F | 17.3 |  | 0.184 µM [rising, full curve, poor fit] |
| Cc1cc(N/N=C(/CCC(=O)O)C(=O)O)nc2ccccc12 | -100 | 29.1 µM [falling, partial curve, poor fit] |  |
| O=C(Nc1nnc(C2=COCCO2)o1)c1cccc(C(F)(F)F)c1 | -17.4 |  | 29.1 µM [falling, single point] |

Continuation:

Compound | cell number change [%] | AC50 [1] | AC50 [2]
Cc1cc(C(=O)OCC(=O)Nc2c(Cl)cccc2C(F)(F)F)c(C)o1 | -5.53 |  | 29.1 µM [rising, partial curve, poor fit]
COc1cccc(/C=C/C(=O)N2CC(C)OC(C)C2)c1OC (centres undefined) | -9.68 |  | 0.164 µM [falling, full curve]
CCCCNC(=O)c1nn2cc(Br)cnc2c1Br | 32.8 | 29.1 µM [rising, single point] | 
O=C(O)CCCN1C(=O)/C(=C\c2ccccc2OCc2ccccc2)SC1=S | 15.4 | 2.91 µM [rising, single point] | 
COCC(=O)N1CCC(Oc2ccc(C(=O)N(C)Cc3nccs3)cc2)CC1 | 6.07 |  | 14.6 µM [rising, partial curve]
COc1ccc(Cn2nnnc2CN2CCN(c3ccc(OC)cc3)CC2)cc1 | 2.26 |  | 2.06 µM [rising, partial curve]
C/C(=N/NC(=O)CN1CCN(S(=O)(=O)c2ccc(Br)cc2)CC1)c1cccnc1 | 8.89 | 6.51 µM [rising, single point] | 1.64 µM [rising, partial curve, poor fit]
CCOC(=O)N1CCN(C(=O)CCc2ccc(S(=O)(=O)NCCc3ccccc3)cc2)CC1 | -34 | 14.6 µM [falling, partial curve, poor fit] | 0.82 µM [rising, partial curve]
COc1cccc(NC(=O)c2cc(OC)c(OC)c(OC)c2Br)c1 | 8.91 |  | 1.64 µM [rising, partial curve]
CCC(C)NC(=O)Cc1c(C)c2cc3c(cc2oc1=O)OC(C)(C)CC3 (centres undefined) |  | 0.164 µM [rising, full curve, poor fit] | 
C=CCOc1c(Br)cc(/C=C2/C(=O)ON=C2C)cc1OC | 22.7 |  | 
CC(C)Oc1ccc(C(=O)Nc2nc3ccccc3[nH]2)cc1 | -10.3 | 0.291 µM [falling, partial curve, poor fit] | 
CSc1ccc(CCNC(=O)c2cc(-c3ccccc3)c(N3CCOCC3)s2)cc1 | 16.9 |  | 29.1 µM [rising, single point]
O=C1CN(c2nc(-c3cccs3)nc3sc4c(c23)CCCC4)CCN1 |  |  | 0.731 µM [falling, full curve]
Cc1cc(C(=O)CN2C(=O)NC3(CCCCC3)C2=O)c(C)n1Cc1ccco1 | 19.8 |  | 14.6 µM [falling, partial curve]
Cc1nn(CC(=O)NC2CCCC2)c(C)c1[N+](=O)[O-] | 13 |  | 32.6 µM [rising, single point]
Cc1ccc(C(=O)c2c(C)oc3c2C(=O)C(=O)c2ccccc2-3)cc1 | -86.6 |  | 
O=C(c1ccc(Cl)c(S(=O)(=O)N2CCCC2)c1)N1CCCCC1 | 31 | 11.2 µM [rising, partial curve, poor fit] | 
Ic1ccc(N2CCN(Cc3c[nH]c4ncccc34)CC2)cc1 | -55.6 | 29.1 µM [falling, single point] | 29.1 µM [falling, single point]
Cc1ccc(C2=N/C(=C\c3ccc(F)cc3)C(=O)N2)cc1 | -26.2 |  | 29.1 µM [falling, single point]
CCOc1ncccc1C(=O)OCC(=O)NCc1ccc2c(c1)OCO2 |  | 0.517 µM [rising, full curve, poor fit] | 29.1 µM [rising, single point]

Compound | cell number change [%] | AC50 [1] | AC50 [2]
CC1=NN(c2ccc(Cl)cc2)C(=O)C1C(c1cccc(O)c1)c1c(C)[nH]n(-c2ccc(Cl)cc2)c1=O (centres undefined) | 8.53 |  | 
Cc1ccc(-n2c(SCC(=O)NCC3CCCO3)nnc2-c2ccoc2C)cc1 (centres undefined) | 0.832 |  | 29.1 µM [falling, single point]
COC(=O)c1cc(=O)c2c(C)nc(C(Cl)(Cl)Cl)nc2[nH]1 | 61.8 |  | 13 µM [rising, partial curve]
O=[N+]([O-])c1cc(S(=O)(=O)O)cc([N+](=O)[O-])c1NN(c1ccccc1)c1ccccc1 | 7.44 |  | 5.17 µM [rising, partial curve]
Cc1ccc(S(=O)(=O)/C(C#N)=C/c2c(N3CCC(C(N)=O)CC3)nc3c(C)cccn3c2=O)cc1 | 25.8 |  | 0.13 µM [rising, full curve, poor fit]
O=C(/C=C/c1ccccc1)N1CCN(CC(O)COc2ccccc2)CC1 (centres undefined) | 46.8 | 5.8 µM [rising, partial curve] | 5.8 µM [rising, single point]
Cc1ccsc1/C=N/NC(=O)CC(=O)NCC(C)C | 22.9 |  | 16.4 µM [rising, partial curve, poor fit]
COc1ccc(C(OC(=O)c2ccco2)C(=O)NC2CCCCC2)cc1OC (centres undefined) | -14.7 |  | 0.731 µM [falling, full curve]
COc1ccccc1-c1ccc(=O)n(CC(=O)NC(C)(C)C)n1 | 12.3 |  | 29.1 µM [falling, single point]
COc1ccc(NC(=O)C2CCCN(C(=O)Nc3cccc(OC)c3)C2)cc1 (centres undefined) | 14.3 |  | 29.1 µM [rising, partial curve, poor fit]
COc1ccc(CCC(=O)NNC(=O)Nc2ccccc2Cl)cc1 | 15.5 |  | 23.1 µM [rising, single point]
CCc1ccc(N(CC(=O)Nc2ccc(OC)cc2OC)S(C)(=O)=O)cc1 | 1.05 |  | 2.59 µM [rising, single point]
Cc1cc(C)cc(NS(=O)(=O)c2c(C)[nH]c(=O)[nH]c2=O)c1 | -37.3 | 1.64 µM [falling, partial curve] | 
CN(C)c1ccc(/C=C(\NC(=O)c2ccccc2)C(=O)NCCCn2ccnc2)cc1 | -3.97 |  | 
Cc1cccc(NC(=O)Nc2ccc(Oc3c(F)c(F)c(F)c(F)c3F)cc2)c1 | -50.5 | 8.2 µM [falling, partial curve] | 13 µM [falling, partial curve]
O=C(NC(=S)Nc1cc(C(F)(F)F)ccc1N1CCOCC1)c1ccco1 | -10.5 |  | 0.0058 µM [falling, full curve, poor fit]
O=C(Nc1ccccc1N1CCN(C(=O)c2ccccc2)CC1)c1ccc2c(c1)OCO2 | 1.88 | 1.03 µM [falling, full curve] | 0.82 µM [falling, full curve]
COc1ccc(OC)c(S(=O)(=O)Nc2ccc(-c3ccc4nnc(C)n4n3)cc2)c1 | -49.6 | 23.1 µM [falling, single point] | 23.1 µM [falling, single point]
O=C(N/N=C\c1cc([N+](=O)[O-])ccc1N1CCOCC1)c1ccccn1 | -4.96 |  | 8.91 µM [falling, partial curve]
